# In paper PMC10781630, “Structural basis of Gabija anti-phage defence and viral immune evasion” (Nature, 2023):
# These are yes or no findings as the source states them, for the method shown. Some entries that bind do so weakly or less than the wild type. Where a sequence is shown, tags or fusion partners need not be part of it.
# T1: 6×His-SUMO2-GajA (Bacillus cereus VD045), subunit of the SUMO2-tagged GajAB complex used for cryo-EM (Bacillus cereus VD045) (UniProt J8H9C1)
# T1 sequence: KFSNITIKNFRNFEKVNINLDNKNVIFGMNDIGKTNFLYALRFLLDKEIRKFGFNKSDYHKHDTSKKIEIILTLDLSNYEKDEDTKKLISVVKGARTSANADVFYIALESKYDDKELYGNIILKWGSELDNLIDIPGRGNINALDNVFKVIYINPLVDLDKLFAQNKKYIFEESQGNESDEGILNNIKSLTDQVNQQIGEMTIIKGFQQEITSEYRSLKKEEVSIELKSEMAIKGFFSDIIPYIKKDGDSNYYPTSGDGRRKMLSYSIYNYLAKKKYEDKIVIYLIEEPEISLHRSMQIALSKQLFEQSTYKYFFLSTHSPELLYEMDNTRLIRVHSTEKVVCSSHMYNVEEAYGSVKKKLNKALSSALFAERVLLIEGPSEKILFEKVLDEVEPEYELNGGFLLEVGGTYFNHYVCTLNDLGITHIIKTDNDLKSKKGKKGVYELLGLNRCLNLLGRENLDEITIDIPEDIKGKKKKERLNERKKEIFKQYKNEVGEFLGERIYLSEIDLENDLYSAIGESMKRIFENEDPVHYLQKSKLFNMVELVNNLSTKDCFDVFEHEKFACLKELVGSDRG
# T2: Bacillus cereus VD045 GajA, co-expressed with GajB, tag removed (subunit of the GajAB complex) (Bacillus cereus VD045) (UniProt J8H9C1)
# T2 sequence: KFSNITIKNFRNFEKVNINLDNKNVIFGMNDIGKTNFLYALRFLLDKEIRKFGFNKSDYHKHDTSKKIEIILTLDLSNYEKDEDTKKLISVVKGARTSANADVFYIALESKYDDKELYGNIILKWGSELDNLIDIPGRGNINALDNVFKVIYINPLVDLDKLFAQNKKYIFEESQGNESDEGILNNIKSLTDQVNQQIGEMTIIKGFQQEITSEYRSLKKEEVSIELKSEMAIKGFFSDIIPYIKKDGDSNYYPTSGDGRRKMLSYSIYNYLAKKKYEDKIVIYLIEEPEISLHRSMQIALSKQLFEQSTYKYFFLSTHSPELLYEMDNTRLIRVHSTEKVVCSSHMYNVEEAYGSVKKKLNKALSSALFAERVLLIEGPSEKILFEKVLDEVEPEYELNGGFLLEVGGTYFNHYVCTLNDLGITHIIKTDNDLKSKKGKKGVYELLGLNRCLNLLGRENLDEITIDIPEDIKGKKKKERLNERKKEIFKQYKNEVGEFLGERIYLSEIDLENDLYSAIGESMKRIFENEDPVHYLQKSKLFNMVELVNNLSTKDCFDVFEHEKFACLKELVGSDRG
# T3: SUMO2-tagged GajAB complex (Bacillus cereus VD045), 4:4 (Bacillus cereus VD045) (UniProt J8H9C1+J8HQ06)
# T3 sequence 1: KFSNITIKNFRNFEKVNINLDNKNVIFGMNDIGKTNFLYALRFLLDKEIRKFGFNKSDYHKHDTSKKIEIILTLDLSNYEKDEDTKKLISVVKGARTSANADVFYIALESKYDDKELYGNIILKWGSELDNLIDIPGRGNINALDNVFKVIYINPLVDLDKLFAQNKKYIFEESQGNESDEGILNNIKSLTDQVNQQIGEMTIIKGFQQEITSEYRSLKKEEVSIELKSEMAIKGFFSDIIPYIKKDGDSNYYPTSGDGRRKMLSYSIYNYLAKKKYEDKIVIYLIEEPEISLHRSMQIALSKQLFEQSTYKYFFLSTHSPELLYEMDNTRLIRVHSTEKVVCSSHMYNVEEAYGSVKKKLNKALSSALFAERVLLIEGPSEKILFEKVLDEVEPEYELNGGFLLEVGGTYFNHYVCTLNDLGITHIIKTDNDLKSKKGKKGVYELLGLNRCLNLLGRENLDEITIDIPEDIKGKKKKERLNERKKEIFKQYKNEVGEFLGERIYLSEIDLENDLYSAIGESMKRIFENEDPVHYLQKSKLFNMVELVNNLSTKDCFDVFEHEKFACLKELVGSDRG
# T3 sequence 2: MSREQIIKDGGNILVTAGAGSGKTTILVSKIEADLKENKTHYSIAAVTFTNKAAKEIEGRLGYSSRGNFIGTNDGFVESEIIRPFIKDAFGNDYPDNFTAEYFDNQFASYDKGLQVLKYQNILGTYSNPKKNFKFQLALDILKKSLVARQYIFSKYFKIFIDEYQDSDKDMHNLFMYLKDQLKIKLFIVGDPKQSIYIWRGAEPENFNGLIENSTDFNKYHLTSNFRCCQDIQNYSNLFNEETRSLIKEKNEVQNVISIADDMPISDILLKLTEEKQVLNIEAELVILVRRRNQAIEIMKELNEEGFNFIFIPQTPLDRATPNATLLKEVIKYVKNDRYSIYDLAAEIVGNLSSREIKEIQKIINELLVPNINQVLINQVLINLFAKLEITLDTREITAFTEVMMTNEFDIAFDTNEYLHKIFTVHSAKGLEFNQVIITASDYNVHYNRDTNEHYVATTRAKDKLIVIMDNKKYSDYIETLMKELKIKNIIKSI
# T4: Bacillus cereus VD045 GajB, untagged, co-expressed with tagged GajA (Bacillus cereus VD045) (UniProt J8HQ06)
# T4 sequence: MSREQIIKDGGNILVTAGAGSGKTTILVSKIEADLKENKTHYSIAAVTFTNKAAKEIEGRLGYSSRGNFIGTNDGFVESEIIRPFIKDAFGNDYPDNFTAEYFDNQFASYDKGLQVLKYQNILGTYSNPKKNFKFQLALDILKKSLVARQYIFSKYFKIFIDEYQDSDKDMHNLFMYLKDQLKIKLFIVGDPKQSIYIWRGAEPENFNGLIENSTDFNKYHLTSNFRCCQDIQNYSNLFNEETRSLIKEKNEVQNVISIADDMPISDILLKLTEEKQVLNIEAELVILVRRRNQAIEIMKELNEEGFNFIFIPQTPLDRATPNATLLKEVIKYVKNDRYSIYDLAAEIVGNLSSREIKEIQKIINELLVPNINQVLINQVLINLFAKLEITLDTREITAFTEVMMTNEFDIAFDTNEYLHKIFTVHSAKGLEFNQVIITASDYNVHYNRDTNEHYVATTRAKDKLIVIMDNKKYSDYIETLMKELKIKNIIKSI
# Tests used:
# [1] = target: T1, 6×His-SUMO2-GajA (Bacillus cereus VD045), subunit of the SUMO2-tagged GajAB complex used for cryo-EM (Bacillus cereus VD045); experiment: cryo-EM structure; SUMO2-GajAB–Gad1 (Phi3T) co-complex, 1 mg ml^-1, 2.57 Å D2 symmetry map; both purified
# [2] = target: T2, Bacillus cereus VD045 GajA, co-expressed with GajB, tag removed (subunit of the GajAB complex) (Bacillus cereus VD045); experiment: crystal structure; co-expressed and co-purified GajAB, 3.0 Å; hanging drop, 18 °C, 100 mM HEPES-NaOH pH 7.5, 2.4% PEG-400, 2.2 M ammonium sulfate; both purified
# [3] = target: T3, SUMO2-tagged GajAB complex (Bacillus cereus VD045), 4:4 (Bacillus cereus VD045); experiment: cryo-EM structure; SUMO2-GajAB–Gad1 (Phi3T) co-complex, 1 mg ml^-1, 2.57 Å D2 symmetry map; both purified
# [4] = target: T4, Bacillus cereus VD045 GajB, untagged, co-expressed with tagged GajA (Bacillus cereus VD045); experiment: as above
# [5] = target: T3, SUMO2-tagged GajAB complex (Bacillus cereus VD045), 4:4 (Bacillus cereus VD045); experiment: SEC; co-expressed and co-purified; 16/600 S200 for SUMO2-tagged BcGajAB with or without Phi3T Gad1, 16/600 S300 for BcGajAB with or without Shewanella phage 1/4 Gad1; SDS–PAGE of the purified complexes; both purified
Binder,binding [1],binding [2],binding [3],binding [4],binding [5]
"Bacillus cereus VD045 GajB, untagged, co-expressed with tagged GajA (enzyme, GajB, Bacillus cereus VD045, IMG ID 2519684553; also called BcGajB; source: co-purified (Ni-NTA, SEC) or in lysate) MSREQIIKDGGNILVTAGAGSGKTTILVSKIEADLKENKTHYSIAAVTFTNKAAKEIEGRLGYSSRGNFIGTNDGFVESEIIRPFIKDAFGNDYPDNFTAEYFDNQFASYDKGLQVLKYQNILGTYSNPKKNFKFQLALDILKKSLVARQYIFSKYFKIFIDEYQDSDKDMHNLFMYLKDQLKIKLFIVGDPKQSIYIWRGAEPENFNGLIENSTDFNKYHLTSNFRCCQDIQNYSNLFNEETRSLIKEKNEVQNVISIADDMPISDILLKLTEEKQVLNIEAELVILVRRRNQAIEIMKELNEEGFNFIFIPQTPLDRATPNATLLKEVIKYVKNDRYSIYDLAAEIVGNLSSREIKEIQKIINELLVPNINQVLINQVLINLFAKLEITLDTREITAFTEVMMTNEFDIAFDTNEYLHKIFTVHSAKGLEFNQVIITASDYNVHYNRDTNEHYVATTRAKDKLIVIMDNKKYSDYIETLMKELKIKNIIKSI",binds,binds,–,–,–
"Bacillus phage Phi3T Gad1 (Gabija anti-defence 1) (natural protein, Gad1, Bacillus phage Phi3T, 35 kDa; Eight copies stand in the 4:4:8 GajAB–Gad1 complex; source: E. coli, co-expressed with SUMO2-GajAB (pBAD vector), co-purified (Ni-NTA, SEC)) MKLIGIKTSNCFLVSDNIEGKRYFHSQLDELLFDGKRATETYKSDWFKLEKEPSVIEKQMPAKKINHRYELKEGFQESELTPKVIKASYIGEDSEYYEVKGLYDLKFEEIPQQNEKIEFEMNVIEEIDGELKLQSHNFNLNYNLLDRIQTHPMLLETKPCYLSQEESYKIIRNHIKANINPKFARITSDYDFCLTVVKVLELYKPHEYIVDLNAMYKRRKPKLEKRFQTKREVEIYKVAPKAYQSYPIVEPFSGKDVEDLKSNIKKFLDDLMAKINEPLVECKCCKGRGVILNEN",binds,–,binds,binds weakly,binds
